Source: article PMC11192940

The chains behind the UniProt entries cited, without tags or fusion partners. Where a name states a change or a piece, a line headed by the entry shows the natural chain unless it says otherwise.
UniProt Q9NZH6: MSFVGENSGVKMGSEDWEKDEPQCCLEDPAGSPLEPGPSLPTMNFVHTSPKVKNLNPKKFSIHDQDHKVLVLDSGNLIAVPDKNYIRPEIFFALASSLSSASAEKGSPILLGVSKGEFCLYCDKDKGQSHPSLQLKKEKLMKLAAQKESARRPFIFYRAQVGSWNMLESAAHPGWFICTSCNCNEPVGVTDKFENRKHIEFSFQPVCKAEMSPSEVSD

Experiments:
[1] = target: Rheb, endogenous (human (endogenous in HEK-293T and A549)) (UniProt Q15382); test: co-IP; whole cell lysates of HEK-293T transfected with or without IL-37d forms incubated with Rheb antibody, then protein A/G; western blot with Flag or indicated antibodies
[2] = target: IL-37d with a 3×Flag at the C-terminal (full-length human IL-37d, pcDNA3.1) (human) (UniProt Q9NZH6); test: co-IP; lysates of transfected HEK-293T or A549 cells incubated with IgG or IL-37d antibody, then protein A/G; western blot; lysis buffer 1.0% NP-40, 10 mM Tris-HCl pH 7.4, 1 mM EDTA, 150 mM NaCl, 10% glycerol; A549 cells also treated with 10 μM FTI-277 for 16 h; HEK-293T also with or without TSC2 plasmid
[3] = target: VC155-Rheb (pBiFC-VC155-Rheb), full-length Rheb fused to the C-terminal fragment of Venus (human) (UniProt Q15382); test: split reporter; HEK-293T transfected with pBiFC-VN173-IL-37d forms and pBiFC-VC155-Rheb (2 μg plasmid); YFP fluorescence by confocal microscopy

Q: How did the binding [1] turn out when “IL-37d with a 3×Flag at the C-terminal (full-length human IL-37d, pcDNA3.1) (from UniProt Q9NZH6-4)” was run?
A: binds

Q: For “IL-37d-N161S with 3×Flag (from UniProt Q9NZH6-4)”, which binding [1] is on record?
A: binds

Q: With “Myc-Rheb (full-length human Rheb with an N-terminal Myc, pCMV) (from UniProt Q15382 1-184)” as the substance, how does the binding [2] read?
A: binds

Q: How did the binding [3] turn out when “VN173-IL-37d-A123P (pBiFC-VN173-IL-37d-A123P) (from UniProt Q9NZH6-4)” was run?
A: no binding

Q: How did the binding [3] turn out when “VN173-IL-37d-C160S (printed as pBiFC-VN173-IL-37d-C160 in the methods) (from UniProt Q9NZH6-4)” was run?
A: no binding

Q: How did the binding [3] turn out when “VN173-IL-37d-G153D (pBiFC-VN173-IL-37d-G153D) (from UniProt Q9NZH6-4)” was run?
A: no binding

Q: With “VN173-IL-37d-N161S (pBiFC-VN173-IL-37d-N161S) (from UniProt Q9NZH6-4)” as the substance, how does the binding [3] read?
A: binds

Results are given in words; binding and its absence hold for the method and conditions named. In cells and extracts the contact can be indirect. Binding calls can cover weak binding; strength is not graded here.
